The text below walks through data of publication PMC6484711.

Sequences of proteins named here, by UniProt entry; tags and fusion partners are left off.
UniProt Q86W56: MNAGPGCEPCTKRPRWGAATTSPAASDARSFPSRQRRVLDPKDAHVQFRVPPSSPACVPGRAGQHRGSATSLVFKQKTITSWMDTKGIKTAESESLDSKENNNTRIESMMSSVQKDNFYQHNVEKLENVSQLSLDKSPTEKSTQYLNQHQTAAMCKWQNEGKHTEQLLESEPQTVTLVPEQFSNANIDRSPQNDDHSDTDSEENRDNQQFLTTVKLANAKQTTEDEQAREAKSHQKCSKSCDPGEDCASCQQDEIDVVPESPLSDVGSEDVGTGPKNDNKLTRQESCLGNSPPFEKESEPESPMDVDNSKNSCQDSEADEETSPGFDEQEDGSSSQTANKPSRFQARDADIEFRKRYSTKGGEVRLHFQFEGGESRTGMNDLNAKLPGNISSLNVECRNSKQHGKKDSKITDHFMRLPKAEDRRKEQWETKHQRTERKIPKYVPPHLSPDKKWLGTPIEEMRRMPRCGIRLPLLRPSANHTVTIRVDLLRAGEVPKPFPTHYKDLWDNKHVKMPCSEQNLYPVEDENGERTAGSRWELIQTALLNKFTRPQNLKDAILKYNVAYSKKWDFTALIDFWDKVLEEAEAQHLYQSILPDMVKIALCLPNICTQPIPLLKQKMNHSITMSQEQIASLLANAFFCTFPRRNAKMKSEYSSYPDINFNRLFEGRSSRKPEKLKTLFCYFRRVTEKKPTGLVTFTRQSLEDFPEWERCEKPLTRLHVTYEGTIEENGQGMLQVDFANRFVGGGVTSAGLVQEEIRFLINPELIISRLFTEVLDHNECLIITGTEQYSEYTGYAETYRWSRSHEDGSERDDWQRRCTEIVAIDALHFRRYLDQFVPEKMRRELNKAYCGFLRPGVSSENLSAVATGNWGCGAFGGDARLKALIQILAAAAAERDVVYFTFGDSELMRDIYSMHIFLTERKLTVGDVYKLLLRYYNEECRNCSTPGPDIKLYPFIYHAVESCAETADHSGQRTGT
UniProt Q15796: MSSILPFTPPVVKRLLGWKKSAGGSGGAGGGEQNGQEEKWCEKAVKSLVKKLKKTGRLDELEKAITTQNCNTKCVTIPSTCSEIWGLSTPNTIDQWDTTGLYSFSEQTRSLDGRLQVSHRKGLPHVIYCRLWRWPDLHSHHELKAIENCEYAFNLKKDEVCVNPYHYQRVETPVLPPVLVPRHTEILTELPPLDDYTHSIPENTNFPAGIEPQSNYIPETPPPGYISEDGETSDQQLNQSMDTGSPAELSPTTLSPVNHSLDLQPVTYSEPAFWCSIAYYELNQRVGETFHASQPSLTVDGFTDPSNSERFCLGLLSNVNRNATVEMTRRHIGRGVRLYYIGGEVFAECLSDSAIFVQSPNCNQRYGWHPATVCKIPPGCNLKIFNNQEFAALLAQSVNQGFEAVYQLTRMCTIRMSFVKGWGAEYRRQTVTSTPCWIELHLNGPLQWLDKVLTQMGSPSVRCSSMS
UniProt P84022: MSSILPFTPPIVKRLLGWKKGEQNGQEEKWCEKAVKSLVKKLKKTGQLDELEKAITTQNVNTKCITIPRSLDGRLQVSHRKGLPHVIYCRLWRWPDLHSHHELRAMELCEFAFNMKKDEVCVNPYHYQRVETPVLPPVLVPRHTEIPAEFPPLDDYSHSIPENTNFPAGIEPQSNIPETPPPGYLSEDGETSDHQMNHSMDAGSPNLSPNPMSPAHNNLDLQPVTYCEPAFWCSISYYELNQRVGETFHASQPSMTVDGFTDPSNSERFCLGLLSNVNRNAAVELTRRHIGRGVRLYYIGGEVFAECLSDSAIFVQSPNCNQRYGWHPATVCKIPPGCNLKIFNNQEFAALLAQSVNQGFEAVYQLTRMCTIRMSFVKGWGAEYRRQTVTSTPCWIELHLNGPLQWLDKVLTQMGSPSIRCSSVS

The target in the test is birA-tagged PARG, full-length 110 kDa wild-type poly (ADP-ribose) glycohydrolase (UniProt Q86W56). Kind of test: proximity labelling; bioID: HEK293T transfected with birA constructs, 50 uM biotin for 18 h, whole cell lysis buffer, biotinylated proteins captured on streptavidin Dynabeads 3 h at 4 C, western blot of PARG and SMAD2/3. (Immunoblotting shows a protein as a band on a membrane.)

No constants are given. Whether binding was seen depends on the method and setting. In cells and extracts the contact can be indirect. A yes stands for co-enrichment or nearness to the bait. Other partners may have been found.

As for SMAD2 (from UniProt Q15796 1-467), the binding result was “binds”.

Regarding SMAD3 (from UniProt P84022 1-425), the binding entry is given as “binds”.
